Results reported in patent US10087148B2, “Quinazolines as biogenic amine transport modulators” (THE UNITED STATES OF AMERICA AS REPRESENTED BY THE …, priority 2014, dated 2018).
Read-outs that look alike come from different tables or passages of the source. At least one compound was matched to its structure with a doubt left.

Protein sequences, listed by entry. Tags and fused reporters are not part of them.
UniProt P23977, whole entry: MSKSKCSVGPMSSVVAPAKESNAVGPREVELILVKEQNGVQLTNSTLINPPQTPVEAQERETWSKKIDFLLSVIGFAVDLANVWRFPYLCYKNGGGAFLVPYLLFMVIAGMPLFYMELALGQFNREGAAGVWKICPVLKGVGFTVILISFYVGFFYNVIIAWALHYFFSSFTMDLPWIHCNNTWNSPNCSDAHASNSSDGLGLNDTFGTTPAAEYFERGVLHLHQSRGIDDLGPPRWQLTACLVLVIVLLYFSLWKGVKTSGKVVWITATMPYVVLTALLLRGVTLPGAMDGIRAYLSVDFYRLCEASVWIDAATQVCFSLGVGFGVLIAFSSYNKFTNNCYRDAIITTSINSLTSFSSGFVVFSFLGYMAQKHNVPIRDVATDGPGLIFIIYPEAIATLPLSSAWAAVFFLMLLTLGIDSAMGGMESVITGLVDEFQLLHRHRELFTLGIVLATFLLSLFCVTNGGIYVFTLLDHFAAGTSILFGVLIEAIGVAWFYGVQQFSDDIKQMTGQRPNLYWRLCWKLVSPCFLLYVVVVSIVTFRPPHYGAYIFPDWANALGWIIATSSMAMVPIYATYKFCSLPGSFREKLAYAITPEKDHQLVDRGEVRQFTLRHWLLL

Key:
[1] = molecular target: T1, dopamine transporter (DAT) (Rattus norvegicus (Rat), UniProt P23977); test: [3H]dopamine (DA) uptake inhibition in rat brain (caudate) synaptosomes; assay type: biochemical
Experimental: Uptake inhibition assay for the dopamine transporter was conducted in rat brain synaptosomes as described elsewhere with minor modifications (Rothman et al., Synapse 39, 32-41 (2001)). Freshly removed caudate was homogenized in 10% ice-cold sucrose with 12 strokes of a hand-held Potter-Elvehjem homogenizer followed by centrifugation at 1000×g for 10 min. The supernatants were saved on ice and used immediately. Transporter activity was assessed using 5 nM [^3H]dopamine. The assay buffer was Krebs-phosphate buffer containing 154.4 mM NaCl, 2.9 mM KCl, 1.1 mM CaCl2, 0.83 mM MgCl2, 5 mM glucose, 1 mg/mL ascorbic acid, and 50 μM pargyline. The selectivity of the uptake assay for DAT was optimized by including 100 nM citalopram and 100 nM desipramine as blockers of SERT and NET in the sucrose solution and assay buffer. […] Nonspecific uptake was measured by incubating in the presence of 10 μM indatraline. […] Filters were rinsed with 6 mL wash buffer and retained tritium was quantified by a MicroBeta liquid scintillation counter (PerkinElmer) after overnight extraction in 0.6 mL of liquid scintillation cocktail (Cytoscint, ICN). […]
All of the test compounds were synthesized as described herein. […] The data from three experiments were pooled and fit to a dose-response curve equation (using KaleidaGraph; Synergy Software, Reading, Pa.) to yield an Emax and IC50 value. […]

[2] = molecular target: DAT (Rattus norvegicus (Rat), UniProt P23977); test: Inhibition of [3H]WIN35428 binding to rat caudate DAT
Experimental: All of the test compounds were synthesized as described herein. […] The data from three experiments were pooled and fit to a dose-response curve equation (using KaleidaGraph; Synergy Software, Reading, Pa.) to yield an Emax and IC50 value. […] Selected compounds were also tested for their ability to inhibit [^3H]WIN35428 binding to rat caudate DAT.

[3] = molecular target: T1, dopamine transporter (DAT); test: Dopamine transporter-mediated [3H]MPP+ release (d-amphetamine-induced, shift experiments) in rat caudate synaptosomes; assay type: biochemical; conditions: [Blocker]/((EC50-2/EC50-1) − 1)
[4] = [3H]WIN35428, mean ± S.D., n = 3, unit as printed in head (text gives 1100 nM where table prints 1.1), read-out: DAT Binding IC50

CN(C)c1ccc(-c2nc(NCC(c3ccccc3)c3ccccc3)c3ccccc3n2)cc1 [Compound 51, 2-(4-(dimethylamino)phenyl)-N-(2,2-diphenylethyl)quinazolin-4-amine] was tested, and the “Efficacy of [3H]DA (DAT) uptake inhibition, in words” value [1] was “partially inhibited”, the “Inhibition of DAT binding, in words” value ([2]; [3H]WIN35428) was “full efficacy” and the IC50 [2, 4] was 1100 ± 100 nM. The IC50 ([2]; [3H]WIN35428 binding, read-out: IC50 for inhibition of DAT binding) was 1100 ± 10 nM and the “Apparent Kc” value [3] was 1940 nM.

Cc1cc(NS(C)(=O)=O)ccc1-c1nc(NCC(c2ccccc2)c2ccccc2)c2ccccc2n1 [Compound 52, N-(4-(4-((2,2-diphenylethyl)amino)quinazolin-2-yl)-3-methylphenyl)methanesulfonamide] showed an IC50 [2, 4] of 2610 ± 1140 nM.

For CS(=O)(=O)Nc1ccc(-c2nc(NCC(c3ccccc3)c3ccccc3)c3ccccc3n2)cc1 [Compound 50, N-(4-(4-((2,2-diphenylethyl)amino)quinazolin-2-yl)phenyl)methanesulfonamide], the IC50 [2, 4] was 3400 ± 1200 nM and the “Apparent Kc” value [3] was -553 nM.

CS(=O)(=O)Nc1ccc(-c2nc(NCC(c3ccccc3)c3ccccc3)c3ccccc3n2)c(Cl)c1 [Compound 53, N-(3-chloro-4-(4-((2,2-diphenylethyl)amino)quinazolin-2-yl)phenyl)methanesulfonamide] gave an IC50 [2, 4] of 2160 ± 970 nM.
